Test results: paper PMC4825987
No constants are given. Whether binding was seen depends on the method and setting. For part of these data: Binding seen in cells or lysates may run through a third protein. Some results given as binding are weak or reduced against the parent protein; the word gives no strength. Tags and fused reporters may be left off the sequences shown.

Amino acid sequences for entries named in this document (tags omitted).
UniProt P33993: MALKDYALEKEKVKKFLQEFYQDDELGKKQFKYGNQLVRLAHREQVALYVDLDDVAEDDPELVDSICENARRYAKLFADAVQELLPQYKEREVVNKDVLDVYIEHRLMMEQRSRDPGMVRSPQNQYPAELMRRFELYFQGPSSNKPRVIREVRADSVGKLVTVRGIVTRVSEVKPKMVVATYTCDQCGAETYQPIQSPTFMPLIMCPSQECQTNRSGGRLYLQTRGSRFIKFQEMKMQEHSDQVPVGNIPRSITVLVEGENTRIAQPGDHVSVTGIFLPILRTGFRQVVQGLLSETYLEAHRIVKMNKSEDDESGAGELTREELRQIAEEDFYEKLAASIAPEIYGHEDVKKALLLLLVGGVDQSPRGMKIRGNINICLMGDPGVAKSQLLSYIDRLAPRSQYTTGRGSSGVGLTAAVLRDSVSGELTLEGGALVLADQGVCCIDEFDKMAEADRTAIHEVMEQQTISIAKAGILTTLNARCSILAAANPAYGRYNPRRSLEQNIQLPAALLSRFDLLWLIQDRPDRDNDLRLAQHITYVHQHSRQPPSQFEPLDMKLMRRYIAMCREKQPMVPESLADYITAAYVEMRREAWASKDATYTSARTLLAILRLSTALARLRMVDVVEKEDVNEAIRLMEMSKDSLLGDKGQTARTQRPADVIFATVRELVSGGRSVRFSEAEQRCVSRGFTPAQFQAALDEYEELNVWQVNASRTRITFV
UniProt P49736: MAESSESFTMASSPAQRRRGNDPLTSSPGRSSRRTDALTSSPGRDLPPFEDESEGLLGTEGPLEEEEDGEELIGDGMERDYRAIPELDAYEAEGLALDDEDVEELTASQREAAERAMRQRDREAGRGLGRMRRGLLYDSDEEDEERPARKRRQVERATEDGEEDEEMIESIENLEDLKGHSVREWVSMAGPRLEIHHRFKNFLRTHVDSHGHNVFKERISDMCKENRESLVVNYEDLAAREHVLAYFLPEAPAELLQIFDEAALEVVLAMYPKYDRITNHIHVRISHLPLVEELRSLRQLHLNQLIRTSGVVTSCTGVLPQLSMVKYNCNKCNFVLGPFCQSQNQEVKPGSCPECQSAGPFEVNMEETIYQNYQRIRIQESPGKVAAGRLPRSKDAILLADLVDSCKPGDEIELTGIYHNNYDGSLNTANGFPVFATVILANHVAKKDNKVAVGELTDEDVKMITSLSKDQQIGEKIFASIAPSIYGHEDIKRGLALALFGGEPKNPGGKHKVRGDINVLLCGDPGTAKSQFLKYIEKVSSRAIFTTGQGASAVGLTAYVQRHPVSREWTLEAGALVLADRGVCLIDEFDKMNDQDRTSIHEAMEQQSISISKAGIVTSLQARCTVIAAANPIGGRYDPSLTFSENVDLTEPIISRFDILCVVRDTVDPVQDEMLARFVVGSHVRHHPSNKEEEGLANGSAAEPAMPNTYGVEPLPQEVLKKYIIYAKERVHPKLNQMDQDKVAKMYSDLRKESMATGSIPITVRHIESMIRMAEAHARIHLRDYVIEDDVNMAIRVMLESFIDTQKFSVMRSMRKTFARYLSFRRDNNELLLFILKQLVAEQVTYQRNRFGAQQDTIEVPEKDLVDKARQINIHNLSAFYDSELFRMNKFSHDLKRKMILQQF

Legend:
[1] = biological target: T1, hIPI3 (WDR18, WD repeat domain 18), yeast two-hybrid fusion (human) (UniProt Q9BV38); experiment: two-hybrid; Gal4 AD (pGADT7) and BD (pGBKT7) fusions co-transformed into AH109 yeast; growth on SCM-Trp-Leu-His (SCM-3) plates against SCM-Trp-Leu (SCM-2)
T1 sequence: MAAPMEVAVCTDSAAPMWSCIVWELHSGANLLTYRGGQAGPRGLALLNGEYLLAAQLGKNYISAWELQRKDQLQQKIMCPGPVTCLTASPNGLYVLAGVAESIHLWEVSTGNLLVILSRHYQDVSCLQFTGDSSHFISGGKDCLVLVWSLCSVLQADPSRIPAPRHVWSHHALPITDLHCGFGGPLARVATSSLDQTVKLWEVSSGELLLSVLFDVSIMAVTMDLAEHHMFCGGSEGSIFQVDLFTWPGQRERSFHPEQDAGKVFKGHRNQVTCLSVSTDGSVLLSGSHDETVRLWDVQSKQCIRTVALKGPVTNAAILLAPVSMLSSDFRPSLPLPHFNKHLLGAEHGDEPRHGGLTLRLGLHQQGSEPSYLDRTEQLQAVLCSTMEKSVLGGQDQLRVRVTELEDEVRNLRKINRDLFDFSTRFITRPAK

[2] = biological target: hMCM7, endogenous (human (endogenous in HeLa)) (UniProt P33993); experiment: co-IP; HA-hIPI3 stable HeLa cells arrested at the G1/S boundary by Mimosine; whole-cell extracts precipitated with anti-HA antibody or control mouse IgG; reverse co-IP with anti-hMCM7 antibody; immunoblot

Molecule: hMCM2, yeast two-hybrid fusion (from UniProt P49736 1-904)
- binding [1]: binds

B1: hMCM3, yeast two-hybrid fusion (protein, UniProt P25205 1-808)
chain: MAGTVVLDDVELREAQRDYLDFLDDEEDQGIYQSKVRELISDNQYRLIVNVNDLRRKNEKRANRLLNNAFEELVAFQRALKDFVASIDATYAKQYEEFYVGLEGSFGSKHVSPRTLTSCFLSCVVCVEGIVTKCSLVRPKVVRSVHYCPATKKTIERRYSDLTTLVAFPSSSVYPTKDEENNPLETEYGLSVYKDHQTITIQEMPEKAPAGQLPRSVDVILDDDLVDKAKPGDRVQVVGTYRCLPGKKGGYTSGTFRTVLIACNVKQMSKDAQPSFSAEDIAKIKKFSKTRSKDIFDQLAKSLAPSIHGHDYVKKAILCLLLGGVERDLENGSHIRGDINILLIGDPSVAKSQLLRYVLCTAPRAIPTTGRGSSGVGLTAAVTTDQETGERRLEAGAMVLADRGVVCIDEFDKMSDMDRTAIHEVMEQGRVTIAKAGIHARLNARCSVLAAANPVYGRYDQYKTPMENIGLQDSLLSRFDLLFIMLDQMDPEQDREISDHVLRMHRYRAPGEQDGDAMPLGSAVDILATDDPNFSQEDQQDTQIYEKHDNLLHGTKKKKEKMVSAAFMKKYIHVAKIIKPVLTQESATYIAEEYSRLRSQDSMSSDTARTSPVTARTLETLIRLATAHAKARMSKTVDLQDAEEAVELVQYAYFKKVLEKEKKRKKRSEDESETEDEEEKSQEDQEQKRKRRKTRQPDAKDGDSYDPYDFSDTEEEMPQVHTPKTADSQETKESQKVELSESRLKAFKVALLDVFREAHAQSIGMNRLTESINRDSEEPFSSVEIQAALSKMQDDNQVMVSEGIIFLI
- binding [1]: binds

B2: HA-hIPI3 (protein, UniProt Q9BV38 1-432)
chain: MAAPMEVAVCTDSAAPMWSCIVWELHSGANLLTYRGGQAGPRGLALLNGEYLLAAQLGKNYISAWELQRKDQLQQKIMCPGPVTCLTASPNGLYVLAGVAESIHLWEVSTGNLLVILSRHYQDVSCLQFTGDSSHFISGGKDCLVLVWSLCSVLQADPSRIPAPRHVWSHHALPITDLHCGFGGPLARVATSSLDQTVKLWEVSSGELLLSVLFDVSIMAVTMDLAEHHMFCGGSEGSIFQVDLFTWPGQRERSFHPEQDAGKVFKGHRNQVTCLSVSTDGSVLLSGSHDETVRLWDVQSKQCIRTVALKGPVTNAAILLAPVSMLSSDFRPSLPLPHFNKHLLGAEHGDEPRHGGLTLRLGLHQQGSEPSYLDRTEQLQAVLCSTMEKSVLGGQDQLRVRVTELEDEVRNLRKINRDLFDFSTRFITRPAK
- binding [2]: binds

B3: hORC1, yeast two-hybrid fusion (protein, UniProt Q13415 1-861)
chain: MAHYPTRLKTRKTYSWVGRPLLDRKLHYQTYREMCVKTEGCSTEIHIQIGQFVLIEGDDDENPYVAKLLELFEDDSDPPPKKRARVQWFVRFCEVPACKRHLLGRKPGAQEIFWYDYPACDSNINAETIIGLVRVIPLAPKDVVPTNLKNEKTLFVKLSWNEKKFRPLSSELFAELNKPQESAAKCQKPVRAKSKSAESPSWTPAEHVAKRIESRHSASKSRQTPTHPLTPRARKRLELGNLGNPQMSQQTSCASLDSPGRIKRKVAFSEITSPSKRSQPDKLQTLSPALKAPEKTRETGLSYTEDDKKASPEHRIILRTRIAASKTIDIREERTLTPISGGQRSSVVPSVILKPENIKKRDAKEAKAQNEATSTPHRIRRKSSVLTMNRIRQQLRFLGNSKSDQEEKEILPAAEISDSSSDEEEASTPPLPRRAPRTVSRNLRSSLKSSLHTLTKVPKKSLKPRTPRCAAPQIRSRSLAAQEPASVLEEARLRLHVSAVPESLPCREQEFQDIYNFVESKLLDHTGGCMYISGVPGTGKTATVHEVIRCLQQAAQANDVPPFQYIEVNGMKLTEPHQVYVQILQKLTGQKATANHAAELLAKQFCTRGSPQETTVLLVDELDLLWTHKQDIMYNLFDWPTHKEARLVVLAIANTMDLPERIMMNRVSSRLGLTRMCFQPYTYSQLQQILRSRLKHLKAFEDDAIQLVARKVAALSGDARRCLDICRRATEICEFSQQKPDSPGLVTIAHSMEAVDEMFSSSYITAIKNSSVLEQSFLRAILAEFRRSGLEEATFQQIYSQHVALCRMEGLPYPTMSETMAVCSHLGSCRLLLVEPSRNDLLLRVRLNVSQDDVLYALKDE
- binding [1]: binds

B4: hORC2, yeast two-hybrid fusion (protein, UniProt Q13416 1-577)
chain: MSKPELKEDKMLEVHFVGDDDVLNHILDREGGAKLKKERAQLLVNPKKIIKKPEYDLEEDDQEVLKDQNYVEIMGRDVQESLKNGSATGGGNKVYSFQNRKHSEKMAKLASELAKTPQKSVSFSLKNDPEITINVPQSSKGHSASDKVQPKNNDKSEFLSTAPRSLRKRLIVPRSHSDSESEYSASNSEDDEGVAQEHEEDTNAVIFSQKIQAQNRVVSAPVGKETPSKRMKRDKTSDLVEEYFEAHSSSKVLTSDRTLQKLKRAKLDQQTLRNLLSKVSPSFSAELKQLNQQYEKLFHKWMLQLHLGFNIVLYGLGSKRDLLERFRTTMLQDSIHVVINGFFPGISVKSVLNSITEEVLDHMGTFRSILDQLDWIVNKFKEDSSLELFLLIHNLDSQMLRGEKSQQIIGQLSSLHNIYLIASIDHLNAPLMWDHAKQSLFNWLWYETTTYSPYTEETSYENSLLVKQSGSLPLSSLTHVLRSLTPNARGIFRLLIKYQLDNQDNPSYIGLSFQDFYQQCREAFLVNSDLTLRAQLTEFRDHKLIRTKKGTDGVEYLLIPVDNGTLTDFLEKEEEEA
- binding [1]: binds

B5: hORC3, yeast two-hybrid fusion (protein, UniProt Q9UBD5 1-711)
chain: MATSSMSKGCFVFKPNSKKRKISLPIEDYFNKGKNEPEDSKLRFETYQLIWQQMKSENERLQEELNKNLFDNLIEFLQKSHSGFQKNSRDLGGQIKLREIPTAALVLGVNVTDHDLTFGSLTEALQNNVTPYVVSLQAKDCPDMKHFLQKLISQLMDCCVDIKSKEEESVHVTQRKTHYSMDSLSSWYMTVTQKTDPKMLSKKRTTSSQWQSPPVVVILKDMESFATKVLQDFIIISSQHLHEFPLILIFGIATSPIIIHRLLPHAVSSLLCIELFQSLSCKEHLTTVLDKLLLTTQFPFKINEKVLQVLTNIFLYHDFSVQNFIKGLQLSLLEHFYSQPLSVLCCNLPEAKRRINFLSNNQCENIRRLPSFRRYVEKQASEKQVALLTNERYLKEETQLLLENLHVYHMNYFLVLRCLHKFTSSLPKYPLGRQIRELYCTCLEKNIWDSEEYASVLQLLRMLAKDELMTILEKCFKVFKSYCENHLGSTAKRIEEFLAQFQSLDETKEEEDASGSQPKGLQKTDLYHLQKSLLEMKELRRSKKQTKFEVLRENVVNFIDCLVREYLLPPETQPLHEVVYFSAAHALREHLNAAPRIALHTALNNPYYYLKNEALKSEEGCIPNIAPDICIAYKLHLECSRLINLVDWSEAFATVVTAAEKMDANSATSEEMNEIIHARFIRAVSELELLGFIKPTKQKTDHVARLTWGGC
- binding [1]: binds
